Assay results published in BigSolDB 2.1.

COc1ccc2cc([C@H](C)C(=O)O)ccc2c1
solubility (mole fraction)
Conditions	293.2 K	298.2 K	303.2 K	308.2 K	313.2 K
in ethanol	0.0124	0.0149	0.0198	0.0232	0.0284
in propylene glycol	0.00614	0.00726	0.00861	0.0106	0.0125
in water	4.36e-06	5.13e-06	5.91e-06	6.6e-06	7.68e-06
